Experimental data taken from publication PMC5258865.
Results are given in words; binding and its absence hold for the method and conditions named. In cells and extracts the contact can be indirect. A result given as binding can be weak or reduced; the word gives no strength. Where a sequence is shown, tags or fusion partners need not be part of it.

Biological target: T1, OsASR5, BiFC fusion (rice (Oryza sativa L. ssp. japonica)) (UniProt Q53JF7)
T1 sequence: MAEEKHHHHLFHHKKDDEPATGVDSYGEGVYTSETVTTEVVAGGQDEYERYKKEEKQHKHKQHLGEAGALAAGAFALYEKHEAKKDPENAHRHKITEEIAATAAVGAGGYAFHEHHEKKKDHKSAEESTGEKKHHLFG
Experiment: split reporter; BiFC in tobacco epidermal cells and in rice protoplasts; signal in the chloroplasts

For “OsHSP40, BiFC fusion (rice (Oryza sativa))”, the binding was “binds”.
